These are yes or no findings as the source states them, for the method shown. Some results given as binding are weak or reduced against the parent protein; the word gives no strength.
What was measured:
amylospheroids (ASPD) [1] = biological target: amylospheroids (ASPD) (UniProt P05067); assay: sandwich CLEIA, huASD2 capture / mASD3 detection
amylospheroids (ASPD) [2] = biological target: amylospheroids (ASPD) (UniProt P05067); assay: sandwich CLEIA, huASD2 capture / biotinylated mASD3 detection
amylospheroids (ASPD) [3] = biological target: amylospheroids (ASPD) (UniProt P05067); assay: sandwich CLEIA, huASD2 capture / biotinylated mASD3 detection, patients' plasma

The chains behind the UniProt entries cited, without tags or fusion partners. Residues count along the entry.
UniProt P05067, residues 672-713: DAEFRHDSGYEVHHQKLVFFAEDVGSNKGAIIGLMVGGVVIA

Measured: binding

B1: humanized anti-ASPD monoclonal antibody huASD2 (antibody, V domains shown)
VH: EVQLVESGGGLVKPGGSLRLSCAASGFTFSDYFMSWVRQAPGKGLEWVGGIEIKSYFYATYYFGSVKGRFTISRDDSKNTLYLQMNSLKTEDTAVYYCTTNREVGGLDNWGQGTLVTVSS
VL: QSVLTQPSSLSASPGASASLTCTLRSGISVGGKNIYWYQQKPGSPPQYLLKYSSYSNKQLGPGVPSRFSGSKDASANAGILLISGLQSEDEADYYCSIHESNAYVFGGGTKLTVLG
binds: all assays above
